Binding data for one substance are collected here from PMC9867762.

The chains behind the UniProt entries cited, without tags or fusion partners.
UniProt P14598: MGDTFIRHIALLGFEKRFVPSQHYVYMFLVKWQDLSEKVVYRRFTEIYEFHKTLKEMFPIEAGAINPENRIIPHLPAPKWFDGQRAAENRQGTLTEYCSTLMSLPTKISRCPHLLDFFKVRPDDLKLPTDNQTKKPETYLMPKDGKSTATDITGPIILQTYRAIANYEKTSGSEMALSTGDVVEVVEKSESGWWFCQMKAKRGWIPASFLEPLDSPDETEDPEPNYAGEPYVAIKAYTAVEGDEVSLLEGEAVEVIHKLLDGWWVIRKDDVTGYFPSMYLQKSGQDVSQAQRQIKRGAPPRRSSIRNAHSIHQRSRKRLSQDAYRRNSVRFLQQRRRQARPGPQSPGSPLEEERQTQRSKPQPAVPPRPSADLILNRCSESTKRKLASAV

The experiment has as its target T1, NADPH oxidase 2 (NOX2)/gp91phox (human (endogenous in SH-SY5Y)) (UniProt P04839).
T1 sequence: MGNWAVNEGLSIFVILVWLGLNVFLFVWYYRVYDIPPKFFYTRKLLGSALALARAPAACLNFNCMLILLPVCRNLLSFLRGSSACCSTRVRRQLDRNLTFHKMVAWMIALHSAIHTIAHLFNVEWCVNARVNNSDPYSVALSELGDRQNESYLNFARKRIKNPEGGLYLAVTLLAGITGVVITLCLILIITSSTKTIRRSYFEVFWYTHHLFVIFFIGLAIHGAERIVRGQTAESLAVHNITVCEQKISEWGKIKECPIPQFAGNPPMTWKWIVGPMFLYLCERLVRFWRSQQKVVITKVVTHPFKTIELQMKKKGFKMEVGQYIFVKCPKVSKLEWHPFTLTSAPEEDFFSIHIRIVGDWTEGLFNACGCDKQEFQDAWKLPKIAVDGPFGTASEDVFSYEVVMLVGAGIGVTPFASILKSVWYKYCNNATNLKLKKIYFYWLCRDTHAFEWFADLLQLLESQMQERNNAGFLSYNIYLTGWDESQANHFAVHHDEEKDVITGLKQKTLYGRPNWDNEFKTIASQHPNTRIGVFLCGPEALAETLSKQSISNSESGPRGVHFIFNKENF
The experiment in a line: co-IP; SH-SY5Y lysates immunoprecipitated with anti-gp91phox (or anti-IgG), blotted for p47phox; cells with or without crocetin (100 uM, 1 h) before MNNG (100 uM, 15 min).

Results are given in words; binding and its absence hold for the method and conditions named. Binding seen in cells or lysates may run through a third protein. Some results given as binding are weak or reduced against the parent protein; the word gives no strength.

As to “NADPH oxidase subunit p47phox (from UniProt P14598 1-390)”, the binding entry is “binds”.
